Results: article PMC12223475, “Two Key Ferredoxins for Nitrogen Fixation Have Different Specificities and Biophysical Properties” (Chemistry (Weinheim an Der Bergstrasse, Germany), 2025)
These are yes or no findings as the source states them, for the method shown.

The chains behind the UniProt entries cited, without tags or fusion partners. Residues count along the entry.
UniProt D5ARY7, residues 2-95: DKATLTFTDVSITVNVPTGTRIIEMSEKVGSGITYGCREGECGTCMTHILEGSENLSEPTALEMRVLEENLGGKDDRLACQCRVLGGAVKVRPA

Biological target: Rhodobacter capsulatus ferredoxin C (FdC), strep-tagged (R. capsulatus) (UniProt D5ARY7)
Assay: SEC; Superdex75 10/300 GL, low-salt buffer (50 mM Tris, 150 mM NaCl, 10% glycerol, pH 7.8), anaerobic; MW from a standard curve of LMW calibration mix; both purified

## Rhodobacter capsulatus ferredoxin C (FdC), strep-tagged (from UniProt D5ARY7 2-95)
  binding: no binding
